According to US20030049246A1:
These are yes or no findings as the source states them, for the method shown. Binding seen in cells or lysates may run through a third protein. Some entries that bind do so weakly or less than the wild type.

Protein sequences, listed by entry. Tags and fused reporters are not part of them. Lines headed by an entry give the natural chain unless they say otherwise; changes in a name come on top.
UniProt P84022: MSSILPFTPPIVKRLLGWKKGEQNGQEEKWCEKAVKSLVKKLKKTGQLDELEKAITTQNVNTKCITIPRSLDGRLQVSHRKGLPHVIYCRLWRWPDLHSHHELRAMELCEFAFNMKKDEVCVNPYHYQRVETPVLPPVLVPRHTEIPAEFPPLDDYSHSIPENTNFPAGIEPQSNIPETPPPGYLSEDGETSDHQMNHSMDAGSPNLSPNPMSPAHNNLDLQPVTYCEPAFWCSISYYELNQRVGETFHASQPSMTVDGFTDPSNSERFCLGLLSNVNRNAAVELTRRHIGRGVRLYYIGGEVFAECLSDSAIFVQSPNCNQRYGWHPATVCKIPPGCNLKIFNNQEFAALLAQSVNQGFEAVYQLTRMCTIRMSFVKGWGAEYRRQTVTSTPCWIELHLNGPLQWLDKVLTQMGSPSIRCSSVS
UniProt Q13485: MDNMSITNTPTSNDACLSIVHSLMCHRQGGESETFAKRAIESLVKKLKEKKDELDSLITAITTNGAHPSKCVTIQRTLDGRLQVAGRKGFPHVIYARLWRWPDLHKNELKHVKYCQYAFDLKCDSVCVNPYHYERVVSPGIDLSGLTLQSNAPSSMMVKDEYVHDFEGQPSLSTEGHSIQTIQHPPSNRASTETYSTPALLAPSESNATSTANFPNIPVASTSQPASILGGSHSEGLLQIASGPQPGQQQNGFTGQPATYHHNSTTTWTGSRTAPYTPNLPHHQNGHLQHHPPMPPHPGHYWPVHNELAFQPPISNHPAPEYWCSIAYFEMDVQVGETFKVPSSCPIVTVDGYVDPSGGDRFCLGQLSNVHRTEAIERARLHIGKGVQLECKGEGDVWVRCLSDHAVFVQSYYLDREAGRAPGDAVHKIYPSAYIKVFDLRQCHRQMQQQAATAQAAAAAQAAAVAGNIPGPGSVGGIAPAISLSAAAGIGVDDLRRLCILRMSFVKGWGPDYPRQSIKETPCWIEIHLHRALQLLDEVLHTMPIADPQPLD
UniProt Q15796: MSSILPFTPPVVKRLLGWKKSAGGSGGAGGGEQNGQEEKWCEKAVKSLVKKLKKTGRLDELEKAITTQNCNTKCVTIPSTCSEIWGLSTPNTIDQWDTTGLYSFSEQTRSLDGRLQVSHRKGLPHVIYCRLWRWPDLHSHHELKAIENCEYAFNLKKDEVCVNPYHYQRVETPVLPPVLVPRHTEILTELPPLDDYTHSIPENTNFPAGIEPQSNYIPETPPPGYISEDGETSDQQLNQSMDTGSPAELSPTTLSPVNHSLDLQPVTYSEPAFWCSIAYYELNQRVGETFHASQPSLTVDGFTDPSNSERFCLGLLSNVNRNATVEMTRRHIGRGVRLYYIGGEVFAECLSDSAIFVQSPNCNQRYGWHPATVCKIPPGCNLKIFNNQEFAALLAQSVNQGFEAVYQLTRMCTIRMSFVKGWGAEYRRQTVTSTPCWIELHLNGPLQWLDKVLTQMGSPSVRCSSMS
UniProt Q15797: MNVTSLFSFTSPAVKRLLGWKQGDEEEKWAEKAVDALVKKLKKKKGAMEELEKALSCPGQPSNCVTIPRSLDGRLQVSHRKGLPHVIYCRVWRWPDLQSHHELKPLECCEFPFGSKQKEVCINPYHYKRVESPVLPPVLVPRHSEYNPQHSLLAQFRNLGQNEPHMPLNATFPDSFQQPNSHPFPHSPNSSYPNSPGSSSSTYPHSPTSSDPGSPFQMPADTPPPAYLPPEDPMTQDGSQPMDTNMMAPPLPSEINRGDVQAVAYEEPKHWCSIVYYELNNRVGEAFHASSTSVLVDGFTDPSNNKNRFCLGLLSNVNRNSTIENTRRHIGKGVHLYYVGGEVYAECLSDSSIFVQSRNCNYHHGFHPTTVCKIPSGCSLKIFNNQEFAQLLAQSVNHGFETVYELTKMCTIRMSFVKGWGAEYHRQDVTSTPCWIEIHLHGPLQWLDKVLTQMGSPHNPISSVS
UniProt P10071: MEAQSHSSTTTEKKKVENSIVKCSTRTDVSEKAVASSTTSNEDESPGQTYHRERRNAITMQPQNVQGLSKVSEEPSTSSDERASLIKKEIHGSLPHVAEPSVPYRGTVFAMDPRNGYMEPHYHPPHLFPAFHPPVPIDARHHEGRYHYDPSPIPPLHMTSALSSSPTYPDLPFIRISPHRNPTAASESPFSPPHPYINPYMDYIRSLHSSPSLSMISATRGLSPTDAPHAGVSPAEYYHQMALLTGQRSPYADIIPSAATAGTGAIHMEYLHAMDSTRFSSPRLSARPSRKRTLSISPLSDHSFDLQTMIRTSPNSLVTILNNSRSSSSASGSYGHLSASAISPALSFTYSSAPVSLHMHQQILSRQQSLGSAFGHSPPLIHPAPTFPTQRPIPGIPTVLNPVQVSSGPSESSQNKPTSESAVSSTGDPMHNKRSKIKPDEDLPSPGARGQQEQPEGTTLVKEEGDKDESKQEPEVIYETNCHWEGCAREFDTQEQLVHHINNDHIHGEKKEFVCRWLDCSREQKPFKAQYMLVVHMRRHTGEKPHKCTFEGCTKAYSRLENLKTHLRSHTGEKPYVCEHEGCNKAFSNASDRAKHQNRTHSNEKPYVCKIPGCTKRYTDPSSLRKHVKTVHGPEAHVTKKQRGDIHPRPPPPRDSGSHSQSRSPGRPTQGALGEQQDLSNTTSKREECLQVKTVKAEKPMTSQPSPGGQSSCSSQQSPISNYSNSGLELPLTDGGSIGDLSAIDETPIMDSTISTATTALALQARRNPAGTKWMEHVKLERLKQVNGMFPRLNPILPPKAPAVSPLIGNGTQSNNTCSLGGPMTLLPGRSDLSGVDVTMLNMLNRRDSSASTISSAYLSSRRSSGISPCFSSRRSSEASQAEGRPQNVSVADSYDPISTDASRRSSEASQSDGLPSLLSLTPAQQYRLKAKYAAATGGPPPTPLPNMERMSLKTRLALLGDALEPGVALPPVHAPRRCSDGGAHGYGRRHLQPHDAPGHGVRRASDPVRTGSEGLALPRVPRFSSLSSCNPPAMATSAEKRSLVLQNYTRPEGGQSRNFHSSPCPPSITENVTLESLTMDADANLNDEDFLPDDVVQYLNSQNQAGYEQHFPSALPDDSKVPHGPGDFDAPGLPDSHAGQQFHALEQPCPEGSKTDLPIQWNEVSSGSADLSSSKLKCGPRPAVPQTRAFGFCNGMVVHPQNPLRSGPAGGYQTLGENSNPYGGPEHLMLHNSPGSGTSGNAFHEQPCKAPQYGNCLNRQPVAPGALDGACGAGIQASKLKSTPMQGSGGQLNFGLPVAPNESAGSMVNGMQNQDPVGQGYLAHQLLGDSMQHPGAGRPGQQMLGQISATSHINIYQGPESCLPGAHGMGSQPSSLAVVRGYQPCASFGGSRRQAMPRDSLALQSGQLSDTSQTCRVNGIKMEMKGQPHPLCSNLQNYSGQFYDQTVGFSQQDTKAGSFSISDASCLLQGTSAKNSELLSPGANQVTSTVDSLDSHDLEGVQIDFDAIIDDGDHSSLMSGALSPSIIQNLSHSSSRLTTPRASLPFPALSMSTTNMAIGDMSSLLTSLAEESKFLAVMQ

Experiments:
Flag-Smad3 = Flag-Smad3 (UniProt P84022); assay: co-immunoprecipitation (anti-Flag IP, anti-Myc blot), transfected R1B/L17 cells; complexes negatively affected by the appropriate agonist
Flag-Smad4 = Flag-Smad4 (UniProt Q13485); assay: as above
Flag-Smad2 = Flag-Smad2 (UniProt Q15796); assay: as above
Flag-Smad1 [1] = target: Flag-Smad1 (UniProt Q15797); assay: as above
Flag-Smad1 [2] = target: Flag-Smad1 (UniProt Q15797); assay: co-immunoprecipitation (anti-Flag IP, anti-Myc blot), transfected cells; BMP signaling partially inhibited complex formation

Measured: binding

Gli3C′ΔClaI (Myc-tagged C-terminal deleted ClaI Gli 3 truncate) (from UniProt P10071 1-745)
binds: all assays above
